Assay results reported in patent US20140308685A1 (SHINO TEST, published 2014).
These are yes or no findings as the source states them, for the method shown. Some results given as binding are weak or reduced against the parent protein; the word gives no strength.

Target: T1, partial-length periostin (R1/R2/R3 regions) (Homo sapiens (Human)) (UniProt Q15063)
T1 sequence: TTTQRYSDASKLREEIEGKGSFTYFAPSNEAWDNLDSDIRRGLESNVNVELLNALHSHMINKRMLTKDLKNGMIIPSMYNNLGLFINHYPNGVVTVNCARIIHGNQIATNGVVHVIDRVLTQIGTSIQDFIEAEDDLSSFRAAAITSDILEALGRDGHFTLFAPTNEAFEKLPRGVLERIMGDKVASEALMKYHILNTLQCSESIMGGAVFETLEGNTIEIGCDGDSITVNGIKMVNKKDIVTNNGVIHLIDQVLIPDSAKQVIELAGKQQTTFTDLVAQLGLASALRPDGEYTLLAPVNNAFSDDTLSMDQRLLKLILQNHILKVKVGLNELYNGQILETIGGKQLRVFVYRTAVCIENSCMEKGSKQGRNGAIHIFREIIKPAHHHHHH
Test: ELISA on immobilized antigen (5 ug/mL), A405; bound if difference to control well is 0.2 or more

B1: anti-periostin monoclonal antibody (SS19D) (antibody, V domains shown)
VH: QVQLQQPGSELVKPGASVKLSCKASGYTFTSYWMHWVKQSPGQGLEWIGEINPSNGRTNYNEKFKTKATLTVDKSSSTAYMQLNSLTSEDSAVYYCVRGDEGFAYWGQGTLVTVSA
VL: NIVLTQSPASLAVSLGQRATISCSASESVDSYGRSFIHWFQQKPGQPPKLLIYLASYLESGVPARFSGSGSRTDFTLTIDPVEADDAATYYCHQNNEDPPTFGGGAKLEIKR
Question: For B1, which binding is on record?
Answer: binds
